# Experimental data: PubChem BioAssay AID588402 (Sanford-Burnham Center for Chemical Genomics, 2011)
# Sequences of proteins named here, by UniProt entry; tags and fusion partners are left off. A change or cut given only in a name is not applied to a line headed by its entry.
# UniProt P04054: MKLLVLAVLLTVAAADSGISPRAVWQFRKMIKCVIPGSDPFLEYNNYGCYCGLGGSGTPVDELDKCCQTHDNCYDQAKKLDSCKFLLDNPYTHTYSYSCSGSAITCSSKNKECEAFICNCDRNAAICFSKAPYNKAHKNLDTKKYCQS
# About 1,100 (69%) of roughly 1,600 compounds were called active. Rule as the data show it: active = inhibition above about 50%; inactive = the rest. The set was probably picked from earlier hits. The list shows a part of the results, in another mix than the full data.
# Target: Phospholipase A2 (Homo sapiens) (UniProt P04054)
# Experiment: PLA2 enzyme inhibition, counter-screen for ATG4B inhibitor project, biochemical, single concentration, uHTS hits (AID 588402)
# Conditions: purified PLA2, NBD-C6-HPC fluorescence, 45 min; at 8.33 µM; active compounds read high
row,SMILES,inhibition
1,Cc1cc(OCc2cc(C(=O)O)oc2C)c2c3c(c(=O)oc2c1)CCCC3,inactive: 39.1%
